Results published in paper PMC7803973, “Structural basis of malaria parasite phenylalanine tRNA-synthetase inhibition by bicyclic azetidines” (Nature Communications, 2021).
These are yes or no findings as the source states them, for the method shown. Some binding calls cover weakened binding; strength is not graded here.

What was measured:
[1] = biological target: T1, Plasmodium vivax cytosolic phenylalanine tRNA-synthetase alpha subunit, full length (Plasmodium vivax) (UniProt A5K9S0); assay: SEC; purified PvcFRS on a Superdex 200 analytical gel filtration column; both purified
T1 sequence: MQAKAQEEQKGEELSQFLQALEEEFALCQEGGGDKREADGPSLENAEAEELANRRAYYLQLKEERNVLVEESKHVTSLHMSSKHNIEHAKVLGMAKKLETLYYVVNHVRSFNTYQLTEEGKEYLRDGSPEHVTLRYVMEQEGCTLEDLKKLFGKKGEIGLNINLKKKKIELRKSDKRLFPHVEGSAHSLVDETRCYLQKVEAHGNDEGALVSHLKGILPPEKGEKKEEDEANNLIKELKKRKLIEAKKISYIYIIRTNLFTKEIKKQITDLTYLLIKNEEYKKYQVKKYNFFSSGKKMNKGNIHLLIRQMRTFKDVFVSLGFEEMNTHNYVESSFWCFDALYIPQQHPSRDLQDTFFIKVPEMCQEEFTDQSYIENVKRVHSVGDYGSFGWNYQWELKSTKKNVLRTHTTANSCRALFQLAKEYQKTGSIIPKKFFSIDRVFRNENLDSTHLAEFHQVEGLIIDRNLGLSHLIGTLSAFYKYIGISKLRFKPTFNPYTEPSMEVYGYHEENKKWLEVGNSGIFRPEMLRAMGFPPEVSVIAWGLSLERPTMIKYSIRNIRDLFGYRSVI

[2] = biological target: T2, PvcFRS alpha subunit as in the crystal (N-terminal domain, residues 1-270, absent) (Plasmodium vivax) (UniProt A5K9S0); assay: crystal structure; PvcFRS with BRD1389 and Mg2+, space group P2(1)2(1)2, one αβ heterodimer per asymmetric unit, 3.0 Å; both purified
T2 sequence: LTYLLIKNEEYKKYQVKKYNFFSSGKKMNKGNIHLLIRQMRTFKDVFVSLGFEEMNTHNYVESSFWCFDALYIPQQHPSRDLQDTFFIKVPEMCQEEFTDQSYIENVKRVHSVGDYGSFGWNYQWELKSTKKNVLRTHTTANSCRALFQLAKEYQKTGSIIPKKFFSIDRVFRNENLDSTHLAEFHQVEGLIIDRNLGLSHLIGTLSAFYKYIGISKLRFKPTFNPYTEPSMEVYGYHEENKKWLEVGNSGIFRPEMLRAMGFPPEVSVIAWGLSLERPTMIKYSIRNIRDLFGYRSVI

B1: Plasmodium vivax cytosolic phenylalanine tRNA-synthetase beta subunit, full length (enzyme, UniProt A5K464 1-617)
chain: MPTISVHEEDLIEKLGEKIEEEKLNDICFEFGIEIDDVEYKGEKKIYKIEVPANRYDLVCVEGLCRALKSFIGKYENVSYALLTNSEEACVKEKHFMRVDESVDERRSYVVSAVLKNVKMNENVYNNIIELQEKLHHNLGKKRILLAIGIHDYDKINFPVAYKFEEKEKINFIPLNETQNVNGNNFINFYQDNINLKSYLKIISDFEKFPVIVDAGGQILSLPPIINCDYTKITYDTRNLFIECTAIDRNKAEIAVNIICSMLSEYCTPKYSIHSFFVQYDKNHKAEKGNGYLYPVFKNKTLTCHMDYVRKLSGILNLSVKDVEPLLKKMMITSKVIDSSTFTVDVPFYRSDIMHFCDIVEDIAIAYGYGNIVSEKIEIAKKNSLSACTELFRNVLAECTYTEVMTNALLSKRENYDCMLRKHRSYDDRKINLDEYNPLAPPVQIMNSKTSEYEIVRTSLIVNMLKFVSANKHRELPLRFFEIGDVSYTTYDRTDTNAVNKRYLSVIFADKFTAGLEEAHGMLETVLKEFQLFSDYKIEEKSKENVAIRSDVFYKLVPKEDPSFLNERVVDIVLCPHNLKFGIMGIIHPKVLENFSIDIPVSVIEINIETIMDVLMM
B1 was tested, and the binding [1] was “binds” and the binding [2] was “binds”.
